According to the supplement of paper PMC4604168 (melanoma cell lines):
The list shows a part of the results. Many values rest on one well or one pass, so single values are uncertain.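 Imaging used 1,536-well plates; nuclei positive for cleaved PARP by antibody were divided by total DNA-stained nuclei to yield the apoptosis fraction. Doses for screening kept most cells viable, and cell lines differ markedly in resting and induced cleaved-PARP levels.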

What was measured:
Experiment in all cases: cleaved PARP positive nuclei fraction relative to DMSO control; melanoma cells; higher = more apoptosis
Settings in all cases: library dose: low library concentration; 72 h
501Mel = test system: 501Mel
A101D = test system: A101D
A2058 = test system: A2058
A375 = test system: A375
C32 = test system: C32
CBRC008 = test system: CBRC008 (line from a melanoma biopsy)
CBRC013 = test system: CBRC013 (line from a melanoma biopsy)
CBRC014 = test system: CBRC014 (line from a melanoma biopsy)
CBRC016 = test system: CBRC016 (line from a melanoma biopsy)
CBRC017 = test system: CBRC017 (line from a melanoma biopsy)

Row | SMILES | cleaved PARP positive nuclei fraction (501Mel) [%] | cleaved PARP positive nuclei fraction (A101D) [%] | cleaved PARP positive nuclei fraction (A2058) [%] | cleaved PARP positive nuclei fraction (A375) [%] | cleaved PARP positive nuclei fraction (C32) [%] | cleaved PARP positive nuclei fraction (CBRC008) [%] | cleaved PARP positive nuclei fraction (CBRC013) [%] | cleaved PARP positive nuclei fraction (CBRC014) [%] | cleaved PARP positive nuclei fraction (CBRC016) [%] | cleaved PARP positive nuclei fraction (CBRC017) [%]
1 | NC1(c2ccc(-c3nc4ccn5c(=O)[nH]nc5c4cc3-c3ccccc3)cc2)CCC1 + O=C(O)c1ccc(-c2c[nH]c3ncc(-c4ccccc4)cc23)cc1C1CCCC1 [GSK650394] (first compound 0.4 µM, partner dose 0.16 µM) | 85.5 | 89.5 | 102 | 78.2 | 44.4 | 230 | 120 | 84.3 | 90.5 | 109
2 | C[C@@H](N)c1ccc(C(=O)Nc2ccnc3[nH]ccc23)cc1 + Cn1cncc1[C@@](N)(c1ccc(Cl)cc1)c1ccc2c(c1)c(-c1cccc(Cl)c1)cc(=O)n2C [tipifarnib] (first compound 0.4 µM, partner dose 0.01 µM) | 84.2 | 50.2 | 97.3 | 152 | 92.8 | 112 | 122 | 114 | 155 | 119
3 | CCCCCCCCc1ccc(CCC(N)(CO)CO)cc1 [fingolimod] + CC1(C)NC(=O)N(c2ccc([N+](=O)[O-])c(C(F)(F)F)c2)C1=O [nilutamide] (first compound 2 µM, partner dose 1 µM) | 136 | 140 | 56.2 | 242 | 114 | 82.4 | 118 | 88.1 | 61.6 | 90.2
4 | CCCCCCCCc1ccc(CCC(N)(CO)CO)cc1 [fingolimod] + NC(=O)Nc1cc(-c2cccc(F)c2)sc1C(=O)N[C@H]1CCCNC1 [AZD7762] (first compound 2 µM, partner dose 0.02 µM) | 146 | 162 | 23 | 2180 | 348 | 115 | 73.2 | 162 | 97.3 | 105
5 | CCN(CC)CCNC(=O)c1c(C)[nH]c(/C=C2\C(=O)Nc3ccc(F)cc32)c1C [sunitinib] + C[C@@H]1CCN(C(=O)CC#N)C[C@@H]1N(C)c1ncnc2[nH]ccc12 [CP690550] (first compound 0.4 µM, partner dose 1 µM) | 85 | 71.3 | 258 | 290 | 151 | 63.2 | 290 | 70.8 | 69.6 | 84.8
6 | Cn1sc(=O)n(Cc2ccccc2)c1=O + O=C(O)c1ccc(-c2c[nH]c3ncc(-c4ccccc4)cc23)cc1C1CCCC1 [GSK650394] (first compound 0.4 µM, partner dose 0.16 µM) | 78.3 | 88.2 | 45.2 | 135 | 84.8 | 145 | 112 | 193 | 193 | 109
7 | NC(=O)c1ccc(N(C(N)=O)c2c(F)cccc2F)nc1-c1ccc(F)cc1F + O=C(CCCCCCC(=O)Nc1ccccc1)NO [vorinostat] (first compound 0.4 µM, partner dose 0.08 µM) | 106 | 155 | 125 | 35.8 | 42.1 | 39.4 | 53.1 | 74.7 | 93.4 | 91.5
8 | C[C@]1(O)C[C@@H](c2nc(-c3ccc4ccc(-c5ccccc5)nc4c3)c3c(N)nccn32)C1 + Cn1cncc1[C@@](N)(c1ccc(Cl)cc1)c1ccc2c(c1)c(-c1cccc(Cl)c1)cc(=O)n2C [tipifarnib] (first compound 0.4 µM, partner dose 0.01 µM) | 245 | 91.3 | 42.2 | 363 | 78.9 | 57.1 | 158 | 133 | 38.8 | 81.6
9 | Cn1cnc2c(F)c(Nc3ccc(Br)cc3Cl)c(C(=O)NOCCO)cc21 [selumetinib] + O=C(O)c1ccc(-c2c[nH]c3ncc(-c4ccccc4)cc23)cc1C1CCCC1 [GSK650394] (first compound 0.015 µM, partner dose 0.16 µM) | 110 | 30.6 | 79.8 | 127 | 26.1 | 163 | 73.8 | 71 | 52.5 | 156
10 | Cn1cnc2c(F)c(Nc3ccc(Br)cc3Cl)c(C(=O)NOCCO)cc21 [selumetinib] + NC(=O)Nc1cc(-c2cccc(F)c2)sc1C(=O)N[C@H]1CCCNC1 [AZD7762] (first compound 0.015 µM, partner dose 0.02 µM) | 134 | 91.1 | 138 | 113 | 85.2 | 160 | 116 | 66.8 | 66.4 | 97.6
11 | NC1(c2ccc(-c3nc4ccn5c(=O)[nH]nc5c4cc3-c3ccccc3)cc2)CCC1 + CN(NC(=O)CC(=O)NN(C)C(=S)c1ccccc1)C(=S)c1ccccc1 [STA4783] (first compound 0.4 µM, partner dose 0.006 µM) | 104 | 124 | 46.2 | 5710 | 73.3 | 3580 | 119 | 546 | 142 | 354
12 | C[C@]1(O)C[C@@H](c2nc(-c3ccc4ccc(-c5ccccc5)nc4c3)c3c(N)nccn32)C1 + CC(C)(C)c1cnc(CSc2cnc(NC(=O)C3CCNCC3)s2)o1 [SNS-032] (first compound 0.4 µM, partner dose 0.01 µM) | 107 | 81.1 | 93.2 | 221 | 88.1 | 356 | 99.8 | 94.8 | 79.5 | 118
13 | C[C@@H](N)c1ccc(C(=O)Nc2ccnc3[nH]ccc23)cc1 + Cc1ccc(NC(=O)c2cccc(N(C)C)c2)cc1NC(=O)c1ccc(O)cc1 [ZM336372] (first compound 0.4 µM, partner dose 2 µM) | 86.9 | 87.1 | 83.2 | 221 | 338 | 35.7 | 148 | 118 | 129 | 110
14 | CC(=O)O[C@@]12CO[C@@H]1C[C@H](O)[C@@]1(C)C(=O)[C@H](O)C3=C(C)[C@@H](OC(=O)[C@H](O)[C@@H](NC(=O)OC(C)(C)C)c4ccccc4)C[C@@](O)([C@@H](OC(=O)c4ccccc4)[C@H]21)C3(C)C [Docetaxel] + CO[C@@H]1[C@H](N(C)C(=O)c2ccccc2)C[C@H]2O[C@]1(C)n1c3ccccc3c3c4c(c5c6ccccc6n2c5c31)C(=O)NC4 [Midostaurin] (first compound 0.0001 µM, partner dose 0.08 µM) | 424 | 164 | 8600 | 8770 | 263 | 308 | 96.9 | 181 | 205 | 140
15 | CCN(CC)CCNC(=O)c1c(C)[nH]c(/C=C2\C(=O)Nc3ccc(F)cc32)c1C [sunitinib] + OCCn1cc(-c2cnc3nnn(Cc4ccc5ncccc5c4)c3n2)cn1 [PF04217903] (first compound 0.4 µM, partner dose 1 µM) | 77.2 | 72.5 | 64.4 | 344 | 41.4 | 144 | 230 | 71.9 | 104 | 87.1
16 | CC1(C)CCC(c2ccc(Cl)cc2)=C(CN2CCN(c3ccc(C(=O)NS(=O)(=O)c4ccc(N[C@H](CCN5CCOCC5)CSc5ccccc5)c(S(=O)(=O)C(F)(F)F)c4)cc3)CC2)C1 + COc1cc2c(Oc3ccc4[nH]c(C)cc4c3F)ncnc2cc1OCCCN1CCCC1 [cediranib] (first compound 0.4 µM, partner dose 0.4 µM) | 93 | 161 | 53.2 | 249 | 196 | 605 | 104 | 471 | 284 | 452
17 | NC1(c2ccc(-c3nc4ccn5c(=O)[nH]nc5c4cc3-c3ccccc3)cc2)CCC1 + COc1cc(Nc2ncc(F)c(Nc3ccc4c(n3)NC(=O)C(C)(C)O4)n2)cc(OC)c1OC [Tamatinib] (first compound 0.4 µM, partner dose 0.4 µM) | 133 | 61.8 | 125 | 317 | 77.6 | 288 | 126 | 91.5 | 140 | 84.2
18 | CC(=O)O[C@@]12CO[C@@H]1C[C@H](O)[C@@]1(C)C(=O)[C@H](O)C3=C(C)[C@@H](OC(=O)[C@H](O)[C@@H](NC(=O)OC(C)(C)C)c4ccccc4)C[C@@](O)([C@@H](OC(=O)c4ccccc4)[C@H]21)C3(C)C [Docetaxel] + Cc1ccc(NC(=O)c2cccc(N(C)C)c2)cc1NC(=O)c1ccc(O)cc1 [ZM336372] (first compound 0.0001 µM, partner dose 2 µM) | 544 | 83.8 | 2720 | 910 | 165 | 553 | 136 | 170 | 159 | 122
19 | C[C@]1(O)C[C@@H](c2nc(-c3ccc4ccc(-c5ccccc5)nc4c3)c3c(N)nccn32)C1 + NC(=O)Nc1cc(-c2cccc(F)c2)sc1C(=O)N[C@H]1CCCNC1 [AZD7762] (first compound 0.4 µM, partner dose 0.02 µM) | 88.4 | 43.6 | 55.6 | 769 | 368 | 40 | 78.8 | 111 | 89.4 | 116
20 | CC(=O)O[C@@]12CO[C@@H]1C[C@H](O)[C@@]1(C)C(=O)[C@H](O)C3=C(C)[C@@H](OC(=O)[C@H](O)[C@@H](NC(=O)OC(C)(C)C)c4ccccc4)C[C@@](O)([C@@H](OC(=O)c4ccccc4)[C@H]21)C3(C)C [Docetaxel] + NC(=O)Nc1cc(-c2cccc(F)c2)sc1C(=O)N[C@H]1CCCNC1 [AZD7762] (first compound 0.0001 µM, partner dose 0.02 µM) | 133 | 98.4 | 6130 | 10900 | 376 | 241 | 132 | 129 | 283 | 124
21 | Cn1sc(=O)n(Cc2ccccc2)c1=O + CN(C)S(=O)(=O)c1ccc2c(c1)/C(=C/c1cc3c([nH]1)CCCC3)C(=O)N2 [SU6656] (first compound 0.4 µM, partner dose 0.4 µM) | 86.8 | 99.7 | 111 | 164 | 19.6 | 184 | 72.1 | 101 | 97.8 | 117

Single values from the list.
For cleaved PARP positive nuclei fraction (CBRC014) [%], C[C@]1(O)C[C@@H](c2nc(-c3ccc4ccc(-c5ccccc5)nc4c3)c3c(N)nccn32)C1 + CC(C)(C)c1cnc(CSc2cnc(NC(=O)C3CCNCC3)s2)o1 [SNS-032] (first compound 0.4 µM, partner dose 0.01 µM) is listed with 94.8
For cleaved PARP positive nuclei fraction (A2058) [%], C[C@]1(O)C[C@@H](c2nc(-c3ccc4ccc(-c5ccccc5)nc4c3)c3c(N)nccn32)C1 + NC(=O)Nc1cc(-c2cccc(F)c2)sc1C(=O)N[C@H]1CCCNC1 [AZD7762] (first compound 0.4 µM, partner dose 0.02 µM) is listed with 55.6
